We go through 1 substance from publication PMC6877644.

The chains behind the UniProt entries cited, without tags or fusion partners.
UniProt P50536: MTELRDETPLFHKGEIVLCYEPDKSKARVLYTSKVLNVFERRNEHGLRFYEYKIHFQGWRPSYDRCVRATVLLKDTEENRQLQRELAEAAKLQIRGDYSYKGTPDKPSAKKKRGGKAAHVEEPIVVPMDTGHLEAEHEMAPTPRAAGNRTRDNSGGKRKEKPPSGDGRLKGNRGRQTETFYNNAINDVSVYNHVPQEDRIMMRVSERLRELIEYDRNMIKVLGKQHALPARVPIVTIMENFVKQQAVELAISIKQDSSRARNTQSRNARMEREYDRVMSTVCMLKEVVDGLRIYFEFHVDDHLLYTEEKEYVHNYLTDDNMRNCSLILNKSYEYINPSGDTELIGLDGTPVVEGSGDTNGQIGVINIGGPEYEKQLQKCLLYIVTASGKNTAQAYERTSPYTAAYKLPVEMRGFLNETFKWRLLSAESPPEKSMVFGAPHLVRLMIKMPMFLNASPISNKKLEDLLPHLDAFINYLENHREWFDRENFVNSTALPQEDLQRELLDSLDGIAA

This assay concerns the target T1, FLAG-MSL1 (D. melanogaster) (UniProt P50535).
T1 sequence: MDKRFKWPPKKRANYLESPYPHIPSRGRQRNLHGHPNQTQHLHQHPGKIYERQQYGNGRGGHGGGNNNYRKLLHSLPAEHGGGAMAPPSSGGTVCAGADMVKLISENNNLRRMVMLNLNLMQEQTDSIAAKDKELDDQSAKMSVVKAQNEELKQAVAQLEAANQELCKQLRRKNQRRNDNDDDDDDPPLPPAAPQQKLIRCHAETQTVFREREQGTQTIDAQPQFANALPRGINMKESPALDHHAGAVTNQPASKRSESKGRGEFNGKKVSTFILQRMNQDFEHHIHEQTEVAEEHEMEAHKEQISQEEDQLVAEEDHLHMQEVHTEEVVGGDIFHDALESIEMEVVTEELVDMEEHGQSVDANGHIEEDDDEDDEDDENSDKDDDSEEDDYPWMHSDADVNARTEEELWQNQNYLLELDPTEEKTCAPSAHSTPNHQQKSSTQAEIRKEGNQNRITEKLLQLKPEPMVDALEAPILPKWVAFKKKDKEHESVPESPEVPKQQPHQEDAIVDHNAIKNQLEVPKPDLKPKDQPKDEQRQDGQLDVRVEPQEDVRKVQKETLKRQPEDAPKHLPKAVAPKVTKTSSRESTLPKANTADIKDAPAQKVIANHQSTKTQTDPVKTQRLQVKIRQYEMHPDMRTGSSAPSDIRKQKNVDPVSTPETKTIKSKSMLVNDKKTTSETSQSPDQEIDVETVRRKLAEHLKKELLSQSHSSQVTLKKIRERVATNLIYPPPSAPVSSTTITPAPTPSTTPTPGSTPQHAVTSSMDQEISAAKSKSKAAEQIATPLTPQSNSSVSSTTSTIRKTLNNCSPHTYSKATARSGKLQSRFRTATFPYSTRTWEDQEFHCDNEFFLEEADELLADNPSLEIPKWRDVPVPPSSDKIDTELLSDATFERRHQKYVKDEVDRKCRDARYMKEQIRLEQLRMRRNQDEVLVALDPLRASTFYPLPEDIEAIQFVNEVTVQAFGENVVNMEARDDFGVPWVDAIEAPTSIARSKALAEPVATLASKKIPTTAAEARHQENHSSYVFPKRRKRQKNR
Description: co-IP; Sf21 extracts with JJ-complex (FLAG-JIL-1/untagged JASPer) and with FLAG-MSL1/untagged MSL2 and FLAG-MSL3 mixed to similar concentrations; IP with antibodies specific for the bait (MSL1 or JIL-1).

These are yes or no findings as the source states them, for the method shown. In cells and extracts the contact can be indirect. Some entries that bind do so weakly or less than the wild type. Tags and fused reporters may be left off the sequences shown.

On to FLAG-MSL3 (from UniProt P50536 1-512), for which the binding result was “binds”.
